Measurements taken from paper PMC8794255, “Small molecule inhibitor of Igf2bp1 represses Kras and a pro-oncogenic phenotype in cancer cells” (RNA Biology, 2021).
The exact form of at least one protein or probe is not confirmed. For some assays here: At least one verdict was read from the data and is not stated in words by the source.

Experiments:
La [1] = assay: EMSA; details: unaffected by 200 uM 7773 or DMSO; recombinant protein; label: 5' 6-FAM
La [2] = assay: FP; details: 7773 IC50 > 100 uM; FP: 10 mM Tris pH 8.0, 75 mM KCl, 3 mM MgCl2, 0.5 mM EDTA, 1 mM DTT, tRNA, heparin, room temperature; recombinant protein; label: 5' 6-FAM

CCCGUUGCUUUUCCUCUGGGAAGGAUGGCGCACGCUGGG [Bcl2 RNA]
binding result (La [1]): binds
binding result (La [2]): binds
